Among all 53,000 sequences or so, about 3,700 (7%) were called active.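 Rule for the calls: active = gene knockdowns whose robust z-score for IL-1 alpha signal is at least 2 or at most -2, so actives lie on both sides; inactive = the rest.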 The list shows a part of the results.
Assay: Components of the Cytosolic LPS Sensing Pathway: Gene Identification via Genome-wide siRNA Screen;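 note: robust z of the log signal after scaling to non-targeting control siRNA wells of the plate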
Conditions: RAW264.7 macrophages, IL-1a HTRF, actives lie on both sides, screened at 100 nM (by protocol), cells primed 5 h with Pam3CSK4 first
Outline: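 Knockdown: 100 nM siRNA, 48h, RAW264.7. Stimulation: Pam3CSK4 5 h, then LipidA via TransIT-TKO 24 h. Output: supernatant IL-1a HTRF, negative-control-normalized, log robust z-score; viability by CellTiter-Glo.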

z-score, active:
GGUCUUCUACUCCUUCUCATT against Slc6a19 -2.09
GGAUGGUACAGGUCUGGUGTT against Fgfr3 4.82
CGUGAUUGAAUCUCAGGAGTT against Spata24 -2.14
GGAUGAUCGCUUUUGCUAUTT against Caly 2.02
CGACAAGCUGUACCUCUACTT against Rfx5 3.41
GUUGUGUUCUGAUUGUUUUTT against Olfr1020 2.03

For convenience, part of the list above:
z-score, active:
GGAUGAUCGCUUUUGCUAUTT against Caly 2.02
CGACAAGCUGUACCUCUACTT against Rfx5 3.41
GUUGUGUUCUGAUUGUUUUTT against Olfr1020 2.03

Next part.

z-score, inactive:
GGGAACUGUACUGUAAUUUTT against Olfr615 0.0311
GGGCAACUAUCCCGUUACUTT against Vps11 -0.211
CCAGUAUGGAAGGUACUCATT against Scfd1 -0.875
GGGAUAGCACAAGUGAGUCTT against Slc13a3 -0.901
GGAAGAUCCCAACAGUUUGTT against Htra1 1.1
GGGAGUAUAAGAGAAACCATT against Chgb -0.357
CGAGGUUCGGACCUGUAAATT against Nabp2 -0.958
CGGCAGCAGAAUAAAUAUGTT against Il12b 0.407
GGAGAGCUGAAAGAUUUAATT against Dlec1 0.462
GGUUGUUCAGAUCUUCUGATT against Nlrp3 -0.103
GGAAGAAAGGUCUAGAAGCTT against Tor2a 0.33
CCAUUUACCUCACUUGUUUTT against Asb8 -0.511
GGUUAAAACCUCUUUCUGATT against Adpgk -1.33
GGUCAAUGUUCACCAGCCATT against Megf11 0.627
GGCCACAGAUCUUCUGGUGTT against Calml4 1.08
GGUGAAUUAUUGCUUUGAGTT against Adprm -0.376
GGGUUACCCAGCAUUCUUUTT against Pex26 -0.811
GGAUGAAGGCUUCUCUGCUTT against Psenen -0.353
GGAUAUUACUCUGUUGAAATT against Ppp2ca 0.193
GGUGAGAUGGUUCAACAUGTT against Olfr77 1.7
CCUAAUACCUUCAGUGUUCTT against Ptcd3 0.865
GGAAAUGAACAGAAAUCACTT against Wdr4 -0.926
GGAGCUUUAUUUUAUACCUTT against Ppil2 0.898
GCAUGAGUUAUCAUAAUCATT against Itgb2 1.04
CGGUCUAAAUUUCCGGUCATT against Elane -0.205
GGAUGACGAUUAUAGAGAATT against Cap2 -0.606
GGGAAAAAUAAACUAAGUGTT against Rwdd1 -1.43
GGUGAGCGAGAUAAGAAGCTT against Ube2s 0.852
GGAUAAACUGUAUGGCUUCTT against Mmp9 1.24
CGUACGCAGAAAUGCCUAGTT against Ssu72 0.865
GGACGUAGCUUGGAAAGAUTT against Flcn -0.813
GGCUAUGAAAAGAAGCCCUTT against Nebl 0.634
CGGAGCCUAUAACAUAUUUTT against Nid1 0.0328
GGCUGAUUCUCCUUCUACCTT against Capn15 -1.02
GGUCAGCAUCACCUACGAUTT against Prss8 -0.688
GGUAGUGGAGCUGAAUGUUTT against Kctd8 0.113
GGAUUUCUGUGUGUCCACUTT against Nav3 -0.131
CCAACACGACGCAGGAAAUTT against Nr0b1 1.33
GGUUGAGAACGAAAACCACTT against Septin11 -0.0425
GCUUGUUGAUCAAUAACCCTT against Cntn4 -0.356
GUGAUGACUGAGCUUCUAATT against Olfr1446 -1.9
CCAAUAAGUGACCUUUUUUTT against Tmprss11b -0.989
GGAUUUUGACAACAUCUCCTT against Pak7 0.406
GGGAGAUGAAGAACUAUGUTT against Hmgb2 -0.459
GGAGCAGCAGAAGGUUCUUTT against Olfr434 1.27
GGGUCCUUUCAAAUAUAUATT against Necap1 -1.03
CGUACUCUAUGAGGUGCCATT against Dennd5a 0.773
GGAACUCUUGGAAGAAUAUTT against Katnal1 -0.018
GCUUGGGUAAUAGAAAUCATT against Btnl1 0.6
CCUAUGGAGAGUAUGACUATT against Khdrbs3 -0.638
CCAAUGAAACCUGCUUGGGTT against Cd200r2 1.11
GAUAUACAGCAUACUCUCATT against Olfr1087 1.04
GGUCAGGAAAUAUUCUUAATT against A630001G21Rik 0.346
CGAGUCUUGUGGAGUUUCGTT against Spint2 0.78
GGCCUGAACCUCUUUCAAGTT against Mep1a 0.968
GGGACAAUUCAGGAUGGAGTT against Ift88 0.0559
GGAGACCUAAAGAUGAUCATT against Mmab 0.385
GGCGCAUAGGAAUGUGCUUTT against Mynn 0.966
GCAUUGUGUGGUUUUGCCATT against Myog 0.614
GGUCUGAAGAAGAUUCUGGTT against Unc45a 0.33
GGUCGUUUCUAUGAUUGGCTT against Olfr589 0.568
GGUUGAAUCAAGAGGAAAATT against Tmem183a 1.27

Quoted at random: 2 records from the list, in no set order.
z-score, inactive:
GGUGAGCGAGAUAAGAAGCTT against Ube2s 0.852
GGGCAACUAUCCCGUUACUTT against Vps11 -0.211

Reference: PubChem BioAssay AID1508600 (Functional Genomics Laboratory (NCATS/FGL), 2020)
